{
  "source": "patent US20120015090A1",
  "about": "“READILY WATER-SOLUBLE MYRICITRIN COMPOSITION” (SAN-EI GEN F.F.I., INC., priority 2009, published 2012)",
  "experiment": "Evaluation of preservation stability, presence or absence of deposits in acid and sugar solutions (Experiment Example 3)",
  "format": "physicochemical",
  "set-up": "key: +: the presence of deposits; −: the absence of deposits; x: no dissolution in the acid and sugar solution",
  "details": "210 days",
  "procedure": "MY and γ-CD were used in the 1:1 proportion (mole ratio) to prepare a powder composition (sample 1) according to the method of Example 1. […] Each solution was hot-packed in a 100-ml glass vial (93° C.). The drinks so prepared were allowed to cool, and placed under 50° C., room temperature (25±2° C.), and low-temperature (5° C.) conditions for 210 days. The presence or absence of deposits was then checked by visual inspection. […] The drinks so prepared were allowed to cool, and placed under 50° C., room temperature (25±2° C.), and low-temperature (5° C.) conditions for 210 days. The presence or absence of deposits was then observed. In the table, the symbol “+” means the presence of deposits, and “−” the absence of deposits. The symbol “x” means no dissolution in the acid and sugar solution.",
  "note": "At least one compound was matched to its structure with a doubt left.",
  "data": [
    {"smiles": "C[C@@H]1O[C@@H](OC[C@H]2O[C@@H](Oc3c(-c4ccc(O)c(O)c4)oc4cc(O)cc(O)c4c3=O)[C@H](O)[C@@H](O)[C@@H]2O)[C@H](O)[C@H](O)[C@H]1O", "note": "[Rutin, rutin]", "values": [
      {"measurement": "presence or absence of deposits", "setting": "pH 3, 50° C., flavonoid concentration 0.05%", "result": "x"},
      {"measurement": "presence or absence of deposits", "setting": "pH 3, 50° C., flavonoid concentration 0.10%", "result": "x"},
      {"measurement": "presence or absence of deposits", "setting": "pH 3, refrigerated (5° C.), flavonoid concentration 0.05%", "result": "x"},
      {"measurement": "presence or absence of deposits", "setting": "pH 3, refrigerated (5° C.), flavonoid concentration 0.10%", "result": "x"},
      {"measurement": "presence or absence of deposits", "setting": "pH 3, room temperature, flavonoid concentration 0.05%", "result": "x"},
      {"measurement": "presence or absence of deposits", "setting": "pH 3, room temperature, flavonoid concentration 0.10%", "result": "x"},
      {"measurement": "presence or absence of deposits", "setting": "pH 6, 50° C., flavonoid concentration 0.05%", "result": "+"},
      {"measurement": "presence or absence of deposits", "setting": "pH 6, 50° C., flavonoid concentration 0.10%", "result": "x"},
      {"measurement": "presence or absence of deposits", "setting": "pH 6, refrigerated (5° C.), flavonoid concentration 0.05%", "result": "+"},
      {"measurement": "presence or absence of deposits", "setting": "pH 6, refrigerated (5° C.), flavonoid concentration 0.10%", "result": "x"},
      {"measurement": "presence or absence of deposits", "setting": "pH 6, room temperature, flavonoid concentration 0.05%", "result": "+"},
      {"measurement": "presence or absence of deposits", "setting": "pH 6, room temperature, flavonoid concentration 0.10%", "result": "x"},
      {"measurement": "presence or absence of deposits", "setting": "pH 9, 50° C., flavonoid concentration 0.05%", "result": "−"},
      {"measurement": "presence or absence of deposits", "setting": "pH 9, 50° C., flavonoid concentration 0.10%", "result": "+"},
      {"measurement": "presence or absence of deposits", "setting": "pH 9, refrigerated (5° C.), flavonoid concentration 0.05%", "result": "−"},
      {"measurement": "presence or absence of deposits", "setting": "pH 9, refrigerated (5° C.), flavonoid concentration 0.10%", "result": "+"},
      {"measurement": "presence or absence of deposits", "setting": "pH 9, room temperature, flavonoid concentration 0.05%", "result": "−"},
      {"measurement": "presence or absence of deposits", "setting": "pH 9, room temperature, flavonoid concentration 0.10%", "result": "+"}
    ]}
  ]
}
